Experimental findings from PMC8893695, “The microprotein Nrs1 rewires the G1/S transcriptional machinery during nitrogen limitation in budding yeast” (PLoS Biology, 2022) are described below.

For this experiment, the target named is Nrs1^13MYC (S. cerevisiae). The experiment can be described thus: affinity purification with mass spectrometry; anti-MYC immunoprecipitation from lysates of the endogenously tagged NRS1^13MYC strain and an untagged control grown in nitrogen-limited YNB+Pro medium; hits filtered against the control and the CRAPome.

These are yes or no findings as the source states them, for the method shown. Binding seen in cells or lysates may run through a third protein. A yes stands for co-enrichment or nearness to the bait. Other partners may have been found.

B1: Swi4 (protein, UniProt P25302 1-1093)
chain: MPFDVLISNQKDNTNHQNITPISKSVLLAPHSNHPVIEIATYSETDVYECYIRGFETKIVMRRTKDDWINITQVFKIAQFSKTKRTKILEKESNDMQHEKVQGGYGRFQGTWIPLDSAKFLVNKYEIIDPVVNSILTFQFDPNNPPPKRSKNSILRKTSPGTKITSPSSYNKTPRKKNSSSSTSATTTAANKKGKKNASINQPNPSPLQNLVFQTPQQFQVNSSMNIMNNNDNHTTMNFNNDTRHNLINNISNNSNQSTIIQQQKSIHENSFNNNYSATQKPLQFFPIPTNLQNKNVALNNPNNNDSNSYSHNIDNVINSSNNNNNGNNNNLIIVPDGPMQSQQQQQHHHEYLTNNFNHSMMDSITNGNSKKRRKKLNQSNEQQFYNQQEKIQRHFKLMKQPLLWQSFQNPNDHHNEYCDSNGSNNNNNTVASNGSSIEVFSSNENDNSMNMSSRSMTPFSAGNTSSQNKLENKMTDQEYKQTILTILSSERSSDVDQALLATLYPAPKNFNINFEIDDQGHTPLHWATAMANIPLIKMLITLNANALQCNKLGFNCITKSIFYNNCYKENAFDEIISILKICLITPDVNGRLPFHYLIELSVNKSKNPMIIKSYMDSIILSLGQQDYNLLKICLNYQDNIGNTPLHLSALNLNFEVYNRLVYLGASTDILNLDNESPASIMNKFNTPAGGSNSRNNNTKADRKLARNLPQKNYYQQQQQQQQPQNNVKIPKIIKTQHPDKEDSTADVNIAKTDSEVNESQYLHSNQPNSTNMNTIMEDLSNINSFVTSSVIKDIKSTPSKILENSPILYRRRSQSISDEKEKAKDNENQVEKKKDPLNSVKTAMPSLESPSSLLPIQMSPLGKYSKPLSQQINKLNTKVSSLQRIMGEEIKNLDNEVVETESSISNNKKRLITIAHQIEDAFDSVSNKTPINSISDLQSRIKETSSKLNSEKQNFIQSLEKSQALKLATIVQDEESKVDMNTNSSSHPEKQEDEEPIPKSTSETSSPKNTKADAKFSNTVQESYDVNETLRLATELTILQFKRRMTTLKISEAKSKINSSVKLDKYRNLIGITIENIDSKLDDIEKDLRANA
As to B1, the binding result is listed as “binds”.

B2: Swi6 (protein, UniProt P09959 1-803)
chain: MALEEVVRYLGPHNEIPLTLTRDSETGHFLLKHFLPILQQYHDTGNINETNPDSFPTDEERNKLLAHYGIAVNTDDRGELWIELEKCLQLLNMLNLFGLFQDAFEFEEPETDQDEEDPSHSKLPENKTKSENSKDNISSKRINNLQDMSLDSDAHRELGSPLKKLKIDTSVIDAESDSTPNTARGKPNDDINKGPSGDNENNGTDDNDRTAGPIITFTHDLTSDFLSSPLKIMKALPSPVVNDNEQKMKLEAFLQRLLFPEIQEMPTSLNNDSSNRNSEGGSSNQQQQHVSFDSLLQEVNDAFPNTQLNLNIPVDEHGNTPLHWLTSIANLELVKHLVKHGSNRLYGDNMGESCLVKAVKSVNNYDSGTFEALLDYLYPCLILEDSMNRTILHHIIITSGMTGCSAAAKYYLDILMGWIVKKQNRPIQSGTNEKESKPNDKNGERKDSILENLDLKWIIANMLNAQDSNGDTCLNIAARLGNISIVDALLDYGADPFIANKSGLRPVDFGAGTSKLQNTNGGDENSKMVSKGDYDGQKNGKAKKIRSQLLKNPPETTSLINDVQNLLNSISKDYENETVQYNEKLEKLHKELNEQREELANSREQLANVKQLKDEYSLMQEQLTNLKAGIEEEEESFREESKKLGIIADESSGIDWDSSEYDADEPFKVEFLSDFLEDKLQKNYEGDISKLLEAESKEQIMEQIRNQLPAEKIQSMLPPTVLLKARINAYKRNDKHLTNVLDTISTKQSELENKFRRVLSLCLKIDENKVDNMLDGLLQAISSEDPQDIDTDEMQDFLKKHAS
For the molecule B2, the binding entry is on record as “binds”.
